Assay: in vivo
Settings: mouse, oral, ddy male mice, mortality one week after administration
Text: […]. Path. Pharmak., 177, 379 (1935)] from the mortality one week after administration.

In the case of `COC(=O)C1=C(C)NC(C)=C(C(=O)OC)C1c1ccccc1[N+](=O)[O-]` [Compound H, Dimethyl 2,6-dimethyl-4-(2-nitrophenyl)-1,4-dihydropyridine-3,5-dicarboxylate, reference compound], the LD50 at 168 h is reported as 550 mg/kg.
